# From the supplement of paper PMC6411743
# Sequences of proteins named here, by UniProt entry; tags and fusion partners are left off. A change or cut given only in a name is not applied to a line headed by its entry.
# UniProt Q96BD5: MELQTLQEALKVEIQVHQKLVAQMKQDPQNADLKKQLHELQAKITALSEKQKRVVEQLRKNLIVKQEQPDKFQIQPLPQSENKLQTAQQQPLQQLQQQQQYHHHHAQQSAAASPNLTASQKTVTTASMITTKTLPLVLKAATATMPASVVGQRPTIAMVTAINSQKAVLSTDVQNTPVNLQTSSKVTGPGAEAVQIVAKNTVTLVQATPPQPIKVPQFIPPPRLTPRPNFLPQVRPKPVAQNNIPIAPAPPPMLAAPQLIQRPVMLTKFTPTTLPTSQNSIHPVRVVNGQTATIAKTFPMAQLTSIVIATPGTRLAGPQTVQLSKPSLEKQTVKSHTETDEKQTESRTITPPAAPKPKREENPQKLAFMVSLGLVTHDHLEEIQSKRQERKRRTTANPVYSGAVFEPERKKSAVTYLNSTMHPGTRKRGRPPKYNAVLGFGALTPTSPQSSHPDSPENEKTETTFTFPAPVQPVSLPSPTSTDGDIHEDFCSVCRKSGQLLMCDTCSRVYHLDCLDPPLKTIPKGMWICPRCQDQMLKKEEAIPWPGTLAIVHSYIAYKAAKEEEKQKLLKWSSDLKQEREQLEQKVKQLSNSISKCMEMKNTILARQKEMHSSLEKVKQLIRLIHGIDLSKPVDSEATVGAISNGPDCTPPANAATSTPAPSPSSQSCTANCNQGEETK
# UniProt Q8WTS6: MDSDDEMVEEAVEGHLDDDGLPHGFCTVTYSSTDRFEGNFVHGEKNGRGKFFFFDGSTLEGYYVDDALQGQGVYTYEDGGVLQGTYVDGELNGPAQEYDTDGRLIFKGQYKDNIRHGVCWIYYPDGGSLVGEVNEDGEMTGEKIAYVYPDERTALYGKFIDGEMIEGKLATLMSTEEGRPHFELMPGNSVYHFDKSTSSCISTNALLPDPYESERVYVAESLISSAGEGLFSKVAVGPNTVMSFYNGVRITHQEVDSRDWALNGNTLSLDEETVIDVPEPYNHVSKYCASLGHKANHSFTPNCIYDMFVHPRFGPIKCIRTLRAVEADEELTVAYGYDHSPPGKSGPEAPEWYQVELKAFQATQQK
# UniProt Q8WTT2: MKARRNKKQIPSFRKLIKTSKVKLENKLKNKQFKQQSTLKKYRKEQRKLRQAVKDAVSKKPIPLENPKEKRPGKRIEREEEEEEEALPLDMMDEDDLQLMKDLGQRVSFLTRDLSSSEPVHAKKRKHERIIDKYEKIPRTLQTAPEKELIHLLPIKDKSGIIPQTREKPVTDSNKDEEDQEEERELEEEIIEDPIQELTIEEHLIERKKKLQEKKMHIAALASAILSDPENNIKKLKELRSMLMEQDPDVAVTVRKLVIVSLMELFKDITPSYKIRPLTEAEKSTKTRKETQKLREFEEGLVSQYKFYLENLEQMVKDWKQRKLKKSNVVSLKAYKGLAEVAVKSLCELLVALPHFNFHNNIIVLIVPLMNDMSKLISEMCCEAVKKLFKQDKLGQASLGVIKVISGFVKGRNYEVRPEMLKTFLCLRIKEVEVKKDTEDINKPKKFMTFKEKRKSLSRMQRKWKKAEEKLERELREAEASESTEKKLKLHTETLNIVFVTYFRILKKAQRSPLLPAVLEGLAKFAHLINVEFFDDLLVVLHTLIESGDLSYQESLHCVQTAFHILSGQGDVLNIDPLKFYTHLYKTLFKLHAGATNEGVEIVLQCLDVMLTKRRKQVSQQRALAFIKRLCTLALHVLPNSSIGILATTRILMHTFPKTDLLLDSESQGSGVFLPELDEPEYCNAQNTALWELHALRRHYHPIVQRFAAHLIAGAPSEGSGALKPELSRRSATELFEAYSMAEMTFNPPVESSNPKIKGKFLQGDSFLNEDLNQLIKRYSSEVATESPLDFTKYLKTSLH
# UniProt Q92522: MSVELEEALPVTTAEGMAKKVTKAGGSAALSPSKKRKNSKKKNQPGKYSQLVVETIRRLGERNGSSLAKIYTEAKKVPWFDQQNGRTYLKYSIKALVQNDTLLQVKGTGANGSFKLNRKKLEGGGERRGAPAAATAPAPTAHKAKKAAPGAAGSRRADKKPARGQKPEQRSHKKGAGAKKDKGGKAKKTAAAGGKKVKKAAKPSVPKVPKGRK
# UniProt Q8WVM7: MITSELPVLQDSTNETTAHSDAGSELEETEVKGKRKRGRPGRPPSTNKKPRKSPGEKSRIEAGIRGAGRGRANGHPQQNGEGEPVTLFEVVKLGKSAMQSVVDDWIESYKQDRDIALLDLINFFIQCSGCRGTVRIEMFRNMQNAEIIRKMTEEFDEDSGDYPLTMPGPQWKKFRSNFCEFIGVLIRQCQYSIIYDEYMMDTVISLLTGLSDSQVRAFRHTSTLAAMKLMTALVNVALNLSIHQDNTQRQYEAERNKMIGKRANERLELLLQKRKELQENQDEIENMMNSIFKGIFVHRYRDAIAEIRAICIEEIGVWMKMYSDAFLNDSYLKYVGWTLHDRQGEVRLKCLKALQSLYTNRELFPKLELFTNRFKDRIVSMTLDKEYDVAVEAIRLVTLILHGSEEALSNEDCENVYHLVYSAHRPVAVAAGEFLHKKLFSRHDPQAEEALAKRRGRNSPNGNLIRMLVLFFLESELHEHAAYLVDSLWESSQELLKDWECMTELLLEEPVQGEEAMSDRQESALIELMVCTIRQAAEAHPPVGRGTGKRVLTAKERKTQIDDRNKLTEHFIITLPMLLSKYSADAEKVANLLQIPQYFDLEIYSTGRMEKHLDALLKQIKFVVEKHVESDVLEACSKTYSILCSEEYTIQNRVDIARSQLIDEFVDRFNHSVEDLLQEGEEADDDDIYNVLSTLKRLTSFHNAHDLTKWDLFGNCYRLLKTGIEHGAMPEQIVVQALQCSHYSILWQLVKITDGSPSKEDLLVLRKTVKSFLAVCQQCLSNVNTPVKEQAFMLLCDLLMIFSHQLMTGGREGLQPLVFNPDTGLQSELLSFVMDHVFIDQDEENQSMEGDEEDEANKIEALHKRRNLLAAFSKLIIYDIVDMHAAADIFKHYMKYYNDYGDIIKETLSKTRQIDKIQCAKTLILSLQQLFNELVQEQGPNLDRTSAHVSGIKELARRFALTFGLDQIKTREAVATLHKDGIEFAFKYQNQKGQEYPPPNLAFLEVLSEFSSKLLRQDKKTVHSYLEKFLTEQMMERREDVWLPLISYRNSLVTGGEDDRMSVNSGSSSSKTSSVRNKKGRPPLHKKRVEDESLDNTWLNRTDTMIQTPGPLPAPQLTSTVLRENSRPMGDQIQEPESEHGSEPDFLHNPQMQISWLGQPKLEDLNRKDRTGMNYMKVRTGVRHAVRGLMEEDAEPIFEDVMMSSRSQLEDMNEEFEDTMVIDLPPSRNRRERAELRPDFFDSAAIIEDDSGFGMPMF
# UniProt Q8WUF5: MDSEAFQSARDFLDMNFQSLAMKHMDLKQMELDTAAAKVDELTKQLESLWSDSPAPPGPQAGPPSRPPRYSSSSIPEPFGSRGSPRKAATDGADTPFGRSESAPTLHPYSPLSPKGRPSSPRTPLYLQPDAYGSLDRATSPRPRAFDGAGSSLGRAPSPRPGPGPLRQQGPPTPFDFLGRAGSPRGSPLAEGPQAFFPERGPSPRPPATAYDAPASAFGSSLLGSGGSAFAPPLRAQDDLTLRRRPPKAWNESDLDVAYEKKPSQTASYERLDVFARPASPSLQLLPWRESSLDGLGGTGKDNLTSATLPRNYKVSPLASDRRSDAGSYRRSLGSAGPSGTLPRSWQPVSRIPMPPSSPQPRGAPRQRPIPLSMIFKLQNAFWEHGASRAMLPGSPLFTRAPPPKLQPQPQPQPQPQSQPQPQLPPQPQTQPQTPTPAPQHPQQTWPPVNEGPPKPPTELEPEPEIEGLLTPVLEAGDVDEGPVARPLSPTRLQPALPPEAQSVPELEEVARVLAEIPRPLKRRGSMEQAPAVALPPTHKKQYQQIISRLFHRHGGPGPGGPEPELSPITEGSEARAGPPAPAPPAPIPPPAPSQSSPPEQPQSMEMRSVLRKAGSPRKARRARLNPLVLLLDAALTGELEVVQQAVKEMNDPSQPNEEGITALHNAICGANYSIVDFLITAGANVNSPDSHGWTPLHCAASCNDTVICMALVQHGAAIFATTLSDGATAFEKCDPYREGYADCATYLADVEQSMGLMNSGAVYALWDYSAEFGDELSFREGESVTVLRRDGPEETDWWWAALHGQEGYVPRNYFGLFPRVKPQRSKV
# UniProt Q969E8: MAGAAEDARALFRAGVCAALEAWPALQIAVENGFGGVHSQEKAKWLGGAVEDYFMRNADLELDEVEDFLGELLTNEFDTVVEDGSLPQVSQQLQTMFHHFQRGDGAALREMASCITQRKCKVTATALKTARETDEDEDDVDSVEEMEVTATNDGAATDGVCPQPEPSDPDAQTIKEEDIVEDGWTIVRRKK
# UniProt Q8WUJ0: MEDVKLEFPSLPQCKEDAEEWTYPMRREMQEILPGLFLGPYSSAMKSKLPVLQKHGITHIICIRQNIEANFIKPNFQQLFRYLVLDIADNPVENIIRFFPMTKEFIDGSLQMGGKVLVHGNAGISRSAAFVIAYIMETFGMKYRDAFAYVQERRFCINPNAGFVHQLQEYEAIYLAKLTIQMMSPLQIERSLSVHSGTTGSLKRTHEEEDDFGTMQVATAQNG
# UniProt Q8TE04: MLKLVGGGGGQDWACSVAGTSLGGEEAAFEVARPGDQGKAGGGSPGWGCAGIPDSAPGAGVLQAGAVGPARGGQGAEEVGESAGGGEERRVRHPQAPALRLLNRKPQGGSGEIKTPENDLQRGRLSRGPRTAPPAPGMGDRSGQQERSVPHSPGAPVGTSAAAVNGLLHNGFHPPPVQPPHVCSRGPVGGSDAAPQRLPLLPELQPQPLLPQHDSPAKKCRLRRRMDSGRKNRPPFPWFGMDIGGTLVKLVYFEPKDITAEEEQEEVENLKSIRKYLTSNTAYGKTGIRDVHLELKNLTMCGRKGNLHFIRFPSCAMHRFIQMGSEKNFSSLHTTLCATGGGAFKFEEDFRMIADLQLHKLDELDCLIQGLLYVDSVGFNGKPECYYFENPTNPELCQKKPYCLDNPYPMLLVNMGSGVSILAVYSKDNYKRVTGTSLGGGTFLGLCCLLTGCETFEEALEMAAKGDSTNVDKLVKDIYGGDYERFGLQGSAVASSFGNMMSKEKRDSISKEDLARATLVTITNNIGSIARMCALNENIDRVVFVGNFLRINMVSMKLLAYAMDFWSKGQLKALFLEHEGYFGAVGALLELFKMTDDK
# UniProt Q8WW59: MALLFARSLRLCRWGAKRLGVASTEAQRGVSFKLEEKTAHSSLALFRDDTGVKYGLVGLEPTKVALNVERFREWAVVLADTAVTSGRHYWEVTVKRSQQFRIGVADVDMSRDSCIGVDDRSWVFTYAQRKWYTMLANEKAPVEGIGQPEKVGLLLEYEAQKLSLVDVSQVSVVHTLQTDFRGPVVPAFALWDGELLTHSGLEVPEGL
# UniProt Q8WUA2: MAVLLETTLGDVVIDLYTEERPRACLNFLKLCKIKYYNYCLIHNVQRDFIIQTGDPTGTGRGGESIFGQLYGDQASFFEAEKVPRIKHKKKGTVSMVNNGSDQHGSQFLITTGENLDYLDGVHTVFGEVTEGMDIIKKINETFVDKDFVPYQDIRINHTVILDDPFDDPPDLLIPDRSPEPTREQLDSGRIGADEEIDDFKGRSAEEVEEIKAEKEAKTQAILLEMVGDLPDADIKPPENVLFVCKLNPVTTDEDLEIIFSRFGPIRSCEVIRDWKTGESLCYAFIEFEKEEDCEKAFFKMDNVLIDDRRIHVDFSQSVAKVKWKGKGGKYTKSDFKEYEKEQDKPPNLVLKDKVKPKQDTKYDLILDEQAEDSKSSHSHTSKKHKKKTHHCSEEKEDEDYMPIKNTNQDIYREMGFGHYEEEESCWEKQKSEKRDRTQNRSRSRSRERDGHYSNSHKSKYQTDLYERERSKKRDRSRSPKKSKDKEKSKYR
# ± gives the standard deviation of the averaged measurements. Only a part is listed here, and it is no random draw.
# Compound: Nc1ncnc2c1ncn2[C@@H]1O[C@H](COP(=O)(O)OP(=O)(O)OP(=O)(O)O)[C@@H](O)[C@H]1O [adenosine triphosphate]
# Assay: NP40-soluble protein abundance relative to vehicle (solubility fold change) (ratio); higher = more soluble protein in presence of ATP
# In short: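 Jurkat crude lysate prepared with a Dounce homogeniser was treated at eight concentrations spanning 0.1 to 10 mM, 10 min at room temperature then 3 min at 37 °C. Solubilisation with 0.8% NP40 and benzonase and ultracentrifugation preceded TMT labelling of the supernatant for LC-MS/MS. Fold change against the detergent-processed vehicle was determined per replicate from vsn-normalised intensities, across three independent experiments.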
Target,NP40-soluble protein abundance (concentration: 1mM),NP40-soluble protein abundance (concentration: 2mM),NP40-soluble protein abundance (concentration: 4mM),NP40-soluble protein abundance (concentration: 6mM),NP40-soluble protein abundance (concentration: 8mM),NP40-soluble protein abundance (concentration: 10mM)
RFT1 (UniProt Q96AA3),0.896 ± 0.091,0.93 ± 0.099,0.915 ± 0.024,0.788 ± 0.1,0.908 ± 0.012,0.932 ± 0.069
UniProt Q96BD5 and related entries,1.018 ± 0.0095,0.969 ± 0.037,1.03 ± 0.063,0.997 ± 0.077,1.03 ± 0.044,0.996 ± 0.033
DNAJB14 (UniProt Q8TBM8),0.907 ± 0.031,0.914 ± 0.038,0.912 ± 0.026,0.958 ± 0.073,0.923 ± 0.033,0.94 ± 0.044
SETD7 (UniProt Q8WTS6),0.989 ± 0.011,0.9963 ± 0.0082,0.946 ± 0.033,0.952 ± 0.011,0.925 ± 0.034,0.945 ± 0.035
UniProt Q92851-4,1.05 ± 0.056,1.06 ± 0.14,0.997 ± 0.1,1 ± 0.055,0.948 ± 0.075,0.982 ± 0.056
NOC3L (UniProt Q8WTT2),1.12 ± 0.052,1.17 ± 0.053,1.25 ± 0.063,1.31 ± 0.057,1.39 ± 0.056,1.43 ± 0.037
UniProt Q969Y2 and related entries,0.966 ± 0.038,0.989 ± 0.01,0.954 ± 0.024,0.973 ± 0.036,0.952 ± 0.038,0.967 ± 0.015
GTF3C6 (UniProt Q969F1),1.03 ± 0.044,1.02 ± 0.02,1.03 ± 0.039,1.02 ± 0.067,1.02 ± 0.021,1.02 ± 0.034
CREBBP (UniProt Q92793),0.971 ± 0.028,1.03 ± 0.052,0.996 ± 0.037,1.01 ± 0.048,0.993 ± 0.054,1.02 ± 0.018
H1FX (UniProt Q92522),0.974 ± 0.1,0.917 ± 0.043,0.959 ± 0.079,1.05 ± 0.069,1.02 ± 0.013,1.05 ± 0.1
UniProt Q8WVM7 and related entries,1.03 ± 0.083,1.06 ± 0.1,1.02 ± 0.016,0.95 ± 0.085,1.05 ± 0.052,1.08 ± 0.11
UniProt Q92738 and related entries,1.04 ± 0.11,1.06 ± 0.025,1.05 ± 0.016,1.083 ± 0.006,1.08 ± 0.024,1.08 ± 0.061
EXOSC8 (UniProt Q96B26),1.051 ± 0.0096,1.09 ± 0.032,1.099 ± 0.0098,1.18 ± 0.019,1.19 ± 0.035,1.24 ± 0.078
PPP1R13L (UniProt Q8WUF5),1.04 ± 0.054,0.982 ± 0.032,0.9866 ± 0.0095,0.993 ± 0.075,0.908 ± 0.014,0.99 ± 0.022
KIAA1143 (UniProt Q96AT1),0.831 ± 0.1,0.903 ± 0.13,0.836 ± 0.12,0.923 ± 0.12,0.808 ± 0.083,0.822 ± 0.12
UniProt Q92859 and related entries,0.976 ± 0.057,0.981 ± 0.038,0.9896 ± 0.0073,1.02 ± 0.04,0.958 ± 0.08,0.966 ± 0.046
TSR2 (UniProt Q969E8),0.967 ± 0.037,0.987 ± 0.035,1.06 ± 0.018,1.17 ± 0.03,1.13 ± 0.019,1.08 ± 0.14
NEK7 (UniProt Q8TDX7),1.05 ± 0.036,1.02 ± 0.033,0.9969 ± 0.0076,0.98 ± 0.071,0.996 ± 0.016,0.998 ± 0.024
UniProt Q8TCC3 and related entries,0.982 ± 0.099,0.89 ± 0.2,0.867 ± 0.19,0.862 ± 0.29,0.855 ± 0.23,0.823 ± 0.21
UniProt Q8WY54 and related entries,0.972 ± 0.036,0.9 ± 0.14,0.941 ± 0.091,0.934 ± 0.064,0.928 ± 0.037,0.899 ± 0.056
PNPT1 (UniProt Q8TCS8),0.993 ± 0.031,0.974 ± 0.024,0.952 ± 0.02,0.936 ± 0.034,0.967 ± 0.014,0.966 ± 0.035
ZNF516 (UniProt Q92618),1.04 ± 0.051,1.07 ± 0.069,0.996 ± 0.1,1.1 ± 0.046,1.04 ± 0.18,1.07 ± 0.034
STYX (UniProt Q8WUJ0),1.1 ± 0.15,1.05 ± 0.16,1.02 ± 0.1,1.08 ± 0.12,0.962 ± 0.08,0.973 ± 0.11
UniProt Q8TE04 and related entries,0.996 ± 0.023,1.01 ± 0.022,1.072 ± 0.0054,1.07 ± 0.1,1.08 ± 0.094,1.05 ± 0.05
L3MBTL2 (UniProt Q969R5),1.07 ± 0.068,1.05 ± 0.054,1.1 ± 0.065,1.02 ± 0.021,1.11 ± 0.048,1.15 ± 0.057
SPRYD4 (UniProt Q8WW59),0.995 ± 0.19,1.02 ± 0.12,1 ± 0.11,0.952 ± 0.15,0.982 ± 0.034,1 ± 0.065
UBASH3B (UniProt Q8TF42),0.993 ± 0.082,0.982 ± 0.071,0.979 ± 0.052,0.93 ± 0.11,1 ± 0.041,0.973 ± 0.068
ZNF592 (UniProt Q92610),1.02 ± 0.057,1.01 ± 0.086,1.07 ± 0.074,1.11 ± 0.18,1.06 ± 0.13,1.12 ± 0.15
PPIL4 (UniProt Q8WUA2),0.97 ± 0.064,0.968 ± 0.07,0.995 ± 0.049,1.03 ± 0.042,1.02 ± 0.031,1.05 ± 0.052
UniProt Q92615,1.11 ± 0.065,1.13 ± 0.06,1.21 ± 0.045,1.22 ± 0.12,1.22 ± 0.079,1.29 ± 0.092

# Another view of some results above:
Target	NP40-soluble protein abundance (concentration: 1mM)	NP40-soluble protein abundance (concentration: 2mM)	NP40-soluble protein abundance (concentration: 4mM)	NP40-soluble protein abundance (concentration: 6mM)	NP40-soluble protein abundance (concentration: 8mM)	NP40-soluble protein abundance (concentration: 10mM)
UniProt Q8WVM7 and related entries	1.03 ± 0.083	1.06 ± 0.1	1.02 ± 0.016	0.95 ± 0.085	1.05 ± 0.052	1.08 ± 0.11
UniProt Q92738 and related entries	1.04 ± 0.11	1.06 ± 0.025	1.05 ± 0.016	1.083 ± 0.006	1.08 ± 0.024	1.08 ± 0.061
